Experimental data: paper doi:10.1101/2024.12.15.628532
Residue numbers refer to the chain shown, from its start. Numbers in names are those of the source. No constants are given. Whether binding was seen depends on the method and setting. In cells and extracts the contact can be indirect. Binding can be weak; no strength is given. Each block holds one binder with its values, some of them ahead of it.

Target: GST-Sec5 Ral binding domain (RBD) (UniProt Q96KP1)
Experiment: pull-down

binding: binds
B1: RALA (endogenous, mouse fibroblasts) (protein, UniProt P63321 1-206)
chain: MAANKPKGQNSLALHKVIMVGSGGVGKSALTLQFMYDEFVEDYEPTKADSYRKKVVLDGEEVQIDILDTAGQEDYAAIRDNYFRSGEGFLCVFSITEMESFAATADFREQILRVKEDENVPFLLVGNKSDLEDKRQVSVEEAKNRADQWNVNYVETSAKTRANVDKVFFDLMREIRARKMEDSKEKNGKKKRKSLAKRIRERCCIL

binding: binds
B2: S194D-RALA (protein, UniProt P11233 1-206)
chain: B1 chain with D147E, S194D

binding: binds
B3: WT-RALA (protein, UniProt P11233 1-206)
chain: B1 chain with D147E

binding: binds
B4: S194A-RALA (protein, UniProt P11233 1-206)
chain: B1 chain with D147E, S194A

binding: binds
B5: RALA (endogenous, MCF7 and MiaPaCa2 cells) (protein, UniProt P11233 1-206)
chain: B1 chain with D147E

binding: binds
B6: RALB (endogenous, MCF7 and MiaPaCa2 cells) (protein, UniProt P11234 1-206)
chain: MAANKSKGQSSLALHKVIMVGSGGVGKSALTLQFMYDEFVEDYEPTKADSYRKKVVLDGEEVQIDILDTAGQEDYAAIRDNYFRSGEGFLLVFSITEHESFTATAEFREQILRVKAEEDKIPLLVVGNKSDLEERRQVPVEEARSKAEEWGVQYVETSAKTRANVDKVFFDLMREIRTKKMSENKDKNGKKSSKNKKSFKERCCLL
